This passage reports NP40-soluble protein abundance results from the supplement of paper PMC6411743.

Chains of the proteins cited; added tags and fusions are not shown. Lines headed by an entry give the natural chain unless they say otherwise; changes in a name come on top.
UniProt Q9Y3Q3: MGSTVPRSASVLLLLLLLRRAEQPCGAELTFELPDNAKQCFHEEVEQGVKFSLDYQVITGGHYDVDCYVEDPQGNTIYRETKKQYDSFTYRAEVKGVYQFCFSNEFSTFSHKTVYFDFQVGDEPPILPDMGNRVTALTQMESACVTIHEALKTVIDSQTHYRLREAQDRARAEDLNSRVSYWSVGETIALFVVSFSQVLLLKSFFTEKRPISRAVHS
UniProt Q9Y448: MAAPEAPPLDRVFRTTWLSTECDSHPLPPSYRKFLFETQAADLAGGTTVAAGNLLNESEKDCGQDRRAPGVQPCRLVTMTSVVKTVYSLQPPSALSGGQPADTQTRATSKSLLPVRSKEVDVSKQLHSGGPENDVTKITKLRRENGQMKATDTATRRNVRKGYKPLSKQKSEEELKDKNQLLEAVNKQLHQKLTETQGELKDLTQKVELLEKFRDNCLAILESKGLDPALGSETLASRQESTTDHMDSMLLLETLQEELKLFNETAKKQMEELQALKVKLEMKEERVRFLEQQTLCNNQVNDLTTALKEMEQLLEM
UniProt Q9Y508: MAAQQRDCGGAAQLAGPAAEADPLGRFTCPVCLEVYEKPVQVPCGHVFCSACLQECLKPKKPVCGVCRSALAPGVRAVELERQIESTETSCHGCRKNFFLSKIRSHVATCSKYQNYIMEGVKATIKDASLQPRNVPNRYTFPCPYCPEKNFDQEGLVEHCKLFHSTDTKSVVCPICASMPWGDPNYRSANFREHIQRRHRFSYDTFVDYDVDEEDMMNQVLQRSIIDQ
UniProt Q9Y5N6: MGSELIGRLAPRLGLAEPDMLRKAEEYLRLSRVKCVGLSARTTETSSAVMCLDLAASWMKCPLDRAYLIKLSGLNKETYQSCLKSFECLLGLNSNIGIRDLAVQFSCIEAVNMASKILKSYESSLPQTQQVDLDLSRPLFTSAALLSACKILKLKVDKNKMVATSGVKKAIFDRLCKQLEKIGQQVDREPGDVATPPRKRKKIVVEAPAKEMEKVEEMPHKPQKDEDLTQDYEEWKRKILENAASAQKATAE
UniProt Q9Y5B9, whole entry: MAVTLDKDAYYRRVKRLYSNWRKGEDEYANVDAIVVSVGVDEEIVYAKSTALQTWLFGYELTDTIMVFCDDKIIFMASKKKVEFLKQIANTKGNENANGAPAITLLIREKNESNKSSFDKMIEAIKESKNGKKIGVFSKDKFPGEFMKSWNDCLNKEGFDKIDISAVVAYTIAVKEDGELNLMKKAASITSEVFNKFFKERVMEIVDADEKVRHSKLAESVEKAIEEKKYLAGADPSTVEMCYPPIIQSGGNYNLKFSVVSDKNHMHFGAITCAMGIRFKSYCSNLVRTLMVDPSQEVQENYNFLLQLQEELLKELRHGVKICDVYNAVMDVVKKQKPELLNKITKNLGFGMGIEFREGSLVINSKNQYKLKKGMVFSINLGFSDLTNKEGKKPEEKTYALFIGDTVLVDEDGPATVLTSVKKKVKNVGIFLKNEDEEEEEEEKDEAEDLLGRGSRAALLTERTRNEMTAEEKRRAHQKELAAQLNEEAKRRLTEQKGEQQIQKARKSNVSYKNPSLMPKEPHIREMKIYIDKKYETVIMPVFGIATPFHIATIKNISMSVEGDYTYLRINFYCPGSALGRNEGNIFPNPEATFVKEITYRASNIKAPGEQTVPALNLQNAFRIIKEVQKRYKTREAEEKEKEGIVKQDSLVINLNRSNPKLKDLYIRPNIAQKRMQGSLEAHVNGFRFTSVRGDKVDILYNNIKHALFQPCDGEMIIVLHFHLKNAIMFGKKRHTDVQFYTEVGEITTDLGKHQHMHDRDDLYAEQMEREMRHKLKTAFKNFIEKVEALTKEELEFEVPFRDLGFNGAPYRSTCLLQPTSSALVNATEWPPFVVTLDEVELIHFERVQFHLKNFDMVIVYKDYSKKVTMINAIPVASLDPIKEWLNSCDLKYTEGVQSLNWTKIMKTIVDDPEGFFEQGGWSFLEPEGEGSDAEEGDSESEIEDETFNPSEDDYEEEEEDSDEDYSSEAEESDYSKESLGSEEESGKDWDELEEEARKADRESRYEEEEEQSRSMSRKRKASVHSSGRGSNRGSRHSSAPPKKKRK
UniProt Q9Y5K6, whole entry: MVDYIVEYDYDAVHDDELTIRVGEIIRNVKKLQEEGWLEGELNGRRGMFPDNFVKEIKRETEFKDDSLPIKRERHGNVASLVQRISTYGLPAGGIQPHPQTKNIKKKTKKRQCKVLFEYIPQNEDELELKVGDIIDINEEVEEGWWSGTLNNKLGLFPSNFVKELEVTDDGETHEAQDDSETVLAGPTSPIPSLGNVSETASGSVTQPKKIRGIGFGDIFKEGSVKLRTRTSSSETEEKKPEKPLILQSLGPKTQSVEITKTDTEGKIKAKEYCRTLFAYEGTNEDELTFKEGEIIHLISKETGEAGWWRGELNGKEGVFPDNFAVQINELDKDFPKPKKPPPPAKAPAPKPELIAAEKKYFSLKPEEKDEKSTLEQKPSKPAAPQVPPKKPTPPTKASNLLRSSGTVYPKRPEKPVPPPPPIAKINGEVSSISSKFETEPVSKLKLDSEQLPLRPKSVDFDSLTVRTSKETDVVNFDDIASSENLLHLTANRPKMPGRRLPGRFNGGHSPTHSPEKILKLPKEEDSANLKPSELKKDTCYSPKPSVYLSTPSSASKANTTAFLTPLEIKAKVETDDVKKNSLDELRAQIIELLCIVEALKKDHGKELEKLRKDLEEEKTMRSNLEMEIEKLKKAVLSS
UniProt Q9Y6Y0: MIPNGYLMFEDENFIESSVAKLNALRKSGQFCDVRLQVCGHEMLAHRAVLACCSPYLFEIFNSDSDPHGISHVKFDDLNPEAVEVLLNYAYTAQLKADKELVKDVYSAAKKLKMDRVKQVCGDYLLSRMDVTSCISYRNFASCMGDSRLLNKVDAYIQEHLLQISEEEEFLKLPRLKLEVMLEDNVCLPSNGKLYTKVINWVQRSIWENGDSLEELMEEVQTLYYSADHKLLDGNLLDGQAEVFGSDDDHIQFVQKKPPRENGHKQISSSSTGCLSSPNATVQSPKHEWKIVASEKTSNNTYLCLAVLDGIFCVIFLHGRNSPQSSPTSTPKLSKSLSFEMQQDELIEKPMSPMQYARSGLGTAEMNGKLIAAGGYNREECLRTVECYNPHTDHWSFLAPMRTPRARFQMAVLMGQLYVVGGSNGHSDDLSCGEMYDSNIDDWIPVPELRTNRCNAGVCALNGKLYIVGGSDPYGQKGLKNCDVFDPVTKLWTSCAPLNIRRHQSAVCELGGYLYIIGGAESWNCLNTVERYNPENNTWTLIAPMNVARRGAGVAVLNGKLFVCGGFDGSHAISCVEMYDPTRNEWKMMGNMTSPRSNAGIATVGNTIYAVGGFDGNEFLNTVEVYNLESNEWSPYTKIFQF
UniProt Q9Y3I1: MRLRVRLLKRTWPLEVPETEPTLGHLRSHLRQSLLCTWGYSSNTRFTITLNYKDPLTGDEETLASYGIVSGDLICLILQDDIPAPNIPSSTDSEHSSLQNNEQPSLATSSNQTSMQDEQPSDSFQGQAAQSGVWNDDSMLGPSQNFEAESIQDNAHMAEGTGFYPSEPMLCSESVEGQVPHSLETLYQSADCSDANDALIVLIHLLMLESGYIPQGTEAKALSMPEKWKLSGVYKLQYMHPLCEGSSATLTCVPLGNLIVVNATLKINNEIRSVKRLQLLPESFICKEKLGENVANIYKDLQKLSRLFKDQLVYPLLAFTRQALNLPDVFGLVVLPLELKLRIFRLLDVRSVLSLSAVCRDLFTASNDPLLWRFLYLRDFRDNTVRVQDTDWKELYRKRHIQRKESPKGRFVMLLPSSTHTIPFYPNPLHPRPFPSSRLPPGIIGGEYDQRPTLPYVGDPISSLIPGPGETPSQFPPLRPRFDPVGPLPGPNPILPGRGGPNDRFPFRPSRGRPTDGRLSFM
UniProt Q9Y4K3: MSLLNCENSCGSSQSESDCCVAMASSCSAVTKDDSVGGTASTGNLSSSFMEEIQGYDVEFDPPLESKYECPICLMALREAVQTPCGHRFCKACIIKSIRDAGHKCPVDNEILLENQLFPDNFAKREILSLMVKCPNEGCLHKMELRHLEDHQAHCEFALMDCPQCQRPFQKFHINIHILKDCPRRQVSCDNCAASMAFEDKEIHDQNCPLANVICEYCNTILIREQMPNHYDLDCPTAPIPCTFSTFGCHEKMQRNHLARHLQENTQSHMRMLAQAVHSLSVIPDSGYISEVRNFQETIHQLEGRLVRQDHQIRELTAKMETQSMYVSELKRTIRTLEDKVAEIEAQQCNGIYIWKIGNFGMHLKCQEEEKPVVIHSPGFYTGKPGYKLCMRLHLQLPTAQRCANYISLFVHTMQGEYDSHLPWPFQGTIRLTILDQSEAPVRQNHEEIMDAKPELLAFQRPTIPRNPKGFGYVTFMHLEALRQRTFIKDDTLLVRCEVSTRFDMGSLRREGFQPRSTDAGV
UniProt Q9Y4B6: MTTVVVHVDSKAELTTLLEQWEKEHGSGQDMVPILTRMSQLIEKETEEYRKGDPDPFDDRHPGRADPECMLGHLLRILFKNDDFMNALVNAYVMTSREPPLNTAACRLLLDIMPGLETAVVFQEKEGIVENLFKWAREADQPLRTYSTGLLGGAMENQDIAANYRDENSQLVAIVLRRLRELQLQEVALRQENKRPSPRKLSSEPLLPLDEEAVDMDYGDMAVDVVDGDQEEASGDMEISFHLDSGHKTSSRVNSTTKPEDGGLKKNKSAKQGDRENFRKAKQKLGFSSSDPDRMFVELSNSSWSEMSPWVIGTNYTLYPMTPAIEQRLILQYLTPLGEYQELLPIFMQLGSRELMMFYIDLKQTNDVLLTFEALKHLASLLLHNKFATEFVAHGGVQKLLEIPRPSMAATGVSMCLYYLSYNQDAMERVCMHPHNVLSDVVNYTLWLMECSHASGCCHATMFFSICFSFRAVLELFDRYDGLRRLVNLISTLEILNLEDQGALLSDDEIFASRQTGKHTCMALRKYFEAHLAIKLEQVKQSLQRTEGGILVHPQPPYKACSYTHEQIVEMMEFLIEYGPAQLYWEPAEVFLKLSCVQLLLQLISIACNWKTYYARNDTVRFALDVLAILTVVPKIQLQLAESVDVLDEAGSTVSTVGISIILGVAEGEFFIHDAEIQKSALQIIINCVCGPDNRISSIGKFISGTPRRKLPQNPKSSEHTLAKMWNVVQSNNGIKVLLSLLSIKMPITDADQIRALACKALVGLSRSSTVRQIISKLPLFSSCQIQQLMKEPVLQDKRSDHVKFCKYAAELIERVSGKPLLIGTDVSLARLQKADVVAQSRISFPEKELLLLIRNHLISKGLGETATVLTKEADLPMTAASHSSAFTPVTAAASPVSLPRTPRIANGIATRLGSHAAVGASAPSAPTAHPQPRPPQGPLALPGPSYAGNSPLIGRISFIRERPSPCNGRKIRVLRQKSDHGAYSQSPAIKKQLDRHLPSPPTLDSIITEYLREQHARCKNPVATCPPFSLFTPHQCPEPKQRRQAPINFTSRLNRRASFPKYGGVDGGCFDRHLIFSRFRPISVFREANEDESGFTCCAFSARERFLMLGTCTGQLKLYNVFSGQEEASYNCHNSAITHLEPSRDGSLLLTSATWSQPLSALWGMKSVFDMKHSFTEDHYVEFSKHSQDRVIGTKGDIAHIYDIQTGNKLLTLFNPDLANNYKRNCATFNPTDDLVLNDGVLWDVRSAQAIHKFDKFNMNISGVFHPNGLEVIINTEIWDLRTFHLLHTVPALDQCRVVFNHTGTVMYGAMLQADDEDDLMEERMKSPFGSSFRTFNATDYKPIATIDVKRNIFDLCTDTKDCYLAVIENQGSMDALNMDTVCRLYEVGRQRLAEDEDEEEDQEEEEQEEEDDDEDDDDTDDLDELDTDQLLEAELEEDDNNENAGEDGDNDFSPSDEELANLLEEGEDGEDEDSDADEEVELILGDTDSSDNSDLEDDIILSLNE
UniProt Q9Y3L3: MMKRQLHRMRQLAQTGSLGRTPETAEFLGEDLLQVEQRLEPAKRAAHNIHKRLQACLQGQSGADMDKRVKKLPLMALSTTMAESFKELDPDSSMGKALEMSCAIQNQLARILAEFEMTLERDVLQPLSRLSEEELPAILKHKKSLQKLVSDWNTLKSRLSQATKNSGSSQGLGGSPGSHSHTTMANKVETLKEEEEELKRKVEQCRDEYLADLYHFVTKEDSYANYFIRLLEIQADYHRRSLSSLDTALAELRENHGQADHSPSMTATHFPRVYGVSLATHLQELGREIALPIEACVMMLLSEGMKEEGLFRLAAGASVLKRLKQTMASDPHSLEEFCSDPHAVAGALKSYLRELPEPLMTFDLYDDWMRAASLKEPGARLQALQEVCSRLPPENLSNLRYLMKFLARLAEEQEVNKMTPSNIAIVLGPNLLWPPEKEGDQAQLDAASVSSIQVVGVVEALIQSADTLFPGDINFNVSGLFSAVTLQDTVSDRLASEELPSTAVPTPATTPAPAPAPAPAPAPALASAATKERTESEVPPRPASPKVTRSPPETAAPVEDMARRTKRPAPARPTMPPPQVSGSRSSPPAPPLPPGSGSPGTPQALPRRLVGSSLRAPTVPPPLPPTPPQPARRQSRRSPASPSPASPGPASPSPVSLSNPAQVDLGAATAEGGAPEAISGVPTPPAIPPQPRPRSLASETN

Compound in this experiment: Nc1ncnc2c1ncn2[C@@H]1O[C@H](COP(=O)(O)OP(=O)(O)NP(=O)(O)O)[C@@H](O)[C@H]1O [adenylyl imidodiphosphate]
Description: NP40-soluble protein abundance relative to vehicle (solubility fold change) (ratio); higher = more soluble protein in presence of AMP-PNP. In outline:
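Crude Jurkat lysate, prepared by Dounce homogenisation, was exposed to eight concentrations from 0.1 to 10 mM for 10 min at room temperature and then 3 min at 37 °C. Solubilisation used 0.8% NP40 with benzonase for 60 min at 4 °C, followed by ultracentrifugation and TMT labelling of the supernatant for LC-MS/MS. After vsn normalisation of intensities, each value is the fold change against the detergent-processed vehicle within each replicate, across three independent experiments.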

± gives the standard deviation of the averaged measurements. This is a selection; strong and weak results do not stand in their true shares.

With TMED3 (UniProt Q9Y3Q3), the NP40-soluble protein abundance runs as follows: (concentration: 1mM) 1.03 ± 0.02; (concentration: 2mM) 0.959 ± 0.088; (concentration: 4mM) 0.971 ± 0.019; (concentration: 6mM) 0.937 ± 0.026; (concentration: 8mM) 0.98 ± 0.028; (concentration: 10mM) 0.942 ± 0.045.

On to UniProt Q9Y448 and related entries, for which the NP40-soluble protein abundance is 0.998 ± 0.035 (concentration: 1mM); 1.06 ± 0.065 (concentration: 2mM); 0.981 ± 0.07 (concentration: 4mM); 0.958 ± 0.014 (concentration: 6mM); 0.937 ± 0.017 (concentration: 8mM); 0.964 ± 0.042 (concentration: 10mM).

Consider RNF114 (UniProt Q9Y508), for which the NP40-soluble protein abundance by setting is: (concentration: 1mM) 1.034 ± 0.0076; (concentration: 2mM) 0.993 ± 0.021; (concentration: 4mM) 1.03 ± 0.019; (concentration: 6mM) 1.024 ± 0.0039; (concentration: 8mM) 1.04 ± 0.018; (concentration: 10mM) 1 ± 0.013.

As for TELO2 (UniProt Q9Y4R8), the NP40-soluble protein abundance (concentration: 1mM) came to 0.963 ± 0.046; the NP40-soluble protein abundance (concentration: 2mM) was 0.9389 ± 0.0056; the NP40-soluble protein abundance (concentration: 4mM) worked out at 0.97 ± 0.051; the NP40-soluble protein abundance (concentration: 6mM) amounted to 0.978 ± 0.091; the NP40-soluble protein abundance (concentration: 8mM) amounted to 1.01 ± 0.068; the NP40-soluble protein abundance (concentration: 10mM) came out at 0.98 ± 0.086.

As to ORC6 (UniProt Q9Y5N6), the NP40-soluble protein abundance (concentration: 1mM) was determined as 1.024 ± 0.0097; the NP40-soluble protein abundance (concentration: 2mM) was determined as 1.06 ± 0.032; the NP40-soluble protein abundance (concentration: 4mM) was 1.03 ± 0.04; the NP40-soluble protein abundance (concentration: 6mM) worked out at 1.05 ± 0.011; the NP40-soluble protein abundance (concentration: 8mM) was determined as 1.04 ± 0.03; the NP40-soluble protein abundance (concentration: 10mM) is 1.05 ± 0.064.

Take SUPT16H (UniProt Q9Y5B9): the NP40-soluble protein abundance was found to be 1.03 ± 0.016 (concentration: 1mM); 1.01 ± 0.023 (concentration: 2mM); 1.1 ± 0.049 (concentration: 4mM); 1.24 ± 0.053 (concentration: 6mM); 1.33 ± 0.055 (concentration: 8mM); 1.46 ± 0.12 (concentration: 10mM).

As to CD2AP (UniProt Q9Y5K6), the NP40-soluble protein abundance by setting is: (concentration: 1mM) 1.03 ± 0.025; (concentration: 2mM) 1.06 ± 0.049; (concentration: 4mM) 1.01 ± 0.021; (concentration: 6mM) 0.987 ± 0.053; (concentration: 8mM) 0.961 ± 0.036; (concentration: 10mM) 0.978 ± 0.023.

For the target IVNS1ABP (UniProt Q9Y6Y0), the NP40-soluble protein abundance by setting is: (concentration: 1mM) 0.954 ± 0.079; (concentration: 2mM) 0.933 ± 0.07; (concentration: 4mM) 0.958 ± 0.086; (concentration: 6mM) 0.929 ± 0.069; (concentration: 8mM) 0.912 ± 0.055; (concentration: 10mM) 0.938 ± 0.087.

With ARFGEF1 (UniProt Q9Y6D6), the NP40-soluble protein abundance (concentration: 1mM) was determined as 0.991 ± 0.018; the NP40-soluble protein abundance (concentration: 2mM) is 0.944 ± 0.013; the NP40-soluble protein abundance (concentration: 4mM) stood at 0.9557 ± 0.0052; the NP40-soluble protein abundance (concentration: 6mM) is 0.93 ± 0.025; the NP40-soluble protein abundance (concentration: 8mM) is 0.926 ± 0.03; the NP40-soluble protein abundance (concentration: 10mM) came out at 0.921 ± 0.013.

UniProt Q9Y5V3 and related entries: the NP40-soluble protein abundance by setting is: (concentration: 1mM) 1 ± 0.08; (concentration: 2mM) 1 ± 0.059; (concentration: 4mM) 0.937 ± 0.08; (concentration: 6mM) 0.869 ± 0.077; (concentration: 8mM) 0.81 ± 0.027; (concentration: 10mM) 0.858 ± 0.048.

As to UniProt Q9Y3I1 and related entries, the NP40-soluble protein abundance reads like this: (concentration: 1mM) 0.967 ± 0.023; (concentration: 2mM) 0.962 ± 0.018; (concentration: 4mM) 0.958 ± 0.022; (concentration: 6mM) 0.927 ± 0.014; (concentration: 8mM) 0.9811 ± 0.0075; (concentration: 10mM) 0.9607 ± 0.0071.

On to UniProt Q9Y5P6 and related entries, for which the NP40-soluble protein abundance came out at 0.98 ± 0.018 (concentration: 1mM); 0.888 ± 0.12 (concentration: 2mM); 0.954 ± 0.039 (concentration: 4mM); 0.916 ± 0.039 (concentration: 6mM); 0.909 ± 0.027 (concentration: 8mM); 0.858 ± 0.017 (concentration: 10mM).

Regarding TRAF6 (UniProt Q9Y4K3), the NP40-soluble protein abundance is 0.957 ± 0.04 (concentration: 1mM); 0.907 ± 0.029 (concentration: 2mM); 0.954 ± 0.055 (concentration: 4mM); 0.937 ± 0.024 (concentration: 6mM); 0.931 ± 0.029 (concentration: 8mM); 0.912 ± 0.014 (concentration: 10mM).

For the target UniProt Q9Y4B6 and related entries, the NP40-soluble protein abundance came out at 0.989 ± 0.05 (concentration: 1mM); 0.971 ± 0.074 (concentration: 2mM); 1 ± 0.073 (concentration: 4mM); 0.955 ± 0.062 (concentration: 6mM); 0.964 ± 0.069 (concentration: 8mM); 0.97 ± 0.09 (concentration: 10mM).

SH3BP1 (UniProt Q9Y3L3): the NP40-soluble protein abundance by setting is: (concentration: 1mM) 0.993 ± 0.02; (concentration: 2mM) 1 ± 0.018; (concentration: 4mM) 1.01 ± 0.031; (concentration: 6mM) 1.03 ± 0.03; (concentration: 8mM) 1 ± 0.019; (concentration: 10mM) 1.03 ± 0.0093.
